## Results of single-concentration screens

The values are deposited in ChEMBL (CHEMBL3988442, “University of Dundee, Small-Polar-MMV Screening Library” (2021)).

Values are the deposited “Percent Effect”, in %. The record does not define 0% and 100%; most values in the screen are far below 50% and negative numbers occur (in some assays of this library far below -100). This is an unselected part of the compounds tested.

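Assay of Toxoplasma gondii numbers, read through their beta-galactosidase reporter with a colour substrate. Compounds at 50 µM. The record gives no direction; the compounds picked for IC50 retests had high values, so higher reads as fewer parasites. Size under these conditions: about 18,000 compounds, about 170 of them at 50% or above in at least one test.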

| # | compound | Percent Effect |
|---|---|---|
| 1 | `CC(=O)NCC1CCNC1` (stereo not shown) | -4.89 |
| 2 | `CNC(C(N)=O)c1cc(OC)ccc1Br` (stereo not shown) | -4.34 |
| 3 | `CC(=O)NCCNCc1cc(O)c2cc(F)ccc2n1` | 7.646 |
| 4 | `NC(=O)c1cccnc1SC1CCCC1` | 3.531 |
| 5 | `Cc1nnc(CNC(=O)Nc2ccccc2F)n1C` | 4.54 |
| 6 | `COCc1nc(-c2cnn(C)c2)cs1` | -5.504 |
| 7 | `CCN1CCN(C(=O)Cc2ccccc2OC)CC1` | -17.22 |
| 8 | `CCOC(=O)CC1C(=O)NCCN1Cc1ccoc1` (stereo not shown) | 13.35 |
| 9 | `Cc1cc(C(C)NC(=O)CN2CSCC2=O)c(C)s1` (stereo not shown) | -4.689 |
| 10 | `Cc1cc2cc(C(=O)N3CC[C@@H](N)[C@H](O)C3)ccc2o1` | 46.69 |
| 11 | `O=S(=O)(c1cccc2nsnc12)N1CCNCC1` | 16.99 |
| 12 | `CC(=O)N1CCC(NC(=O)c2cc(C)c(C)s2)CC1` | -4.453 |
| 13 | `COCc1nc(CCN)no1` | -5.41 |
| 14 | `CC(O)(C1CCNCC1)C(F)(F)F` (stereo not shown) | 3.629 |
| 15 | `CC(C(=O)N1CC[C@H](O)C1)c1ccsc1` (stereo partly shown) | 8.411 |
| 16 | `Cc1ccsc1CN(CC(=O)N1CCNC1=O)C(C)C` | -8.871 |
| 17 | `NCCc1nccn1Cc1ccccc1` | -4.294 |
| 18 | `CCOC(=O)N1CCCC(C(=O)NC(C)C)C1` (stereo not shown) | -6.805 |
| 19 | `CCN1CCCC1CNC(=O)c1cccc(OC)c1` (stereo not shown) | 4.98 |
| 20 | `O=S(=O)(NC1CC1)C1CCNC1` (stereo not shown) | -4.885 |
| 21 | `Cc1cnn(CCNC(C)C(=O)Nc2cc(C)no2)c1` (stereo not shown) | 6.361 |
| 22 | `COC1CNc2ccccc2C1` (stereo not shown) | -15.01 |
| 23 | `CC(C)C(=O)NCCCNC(=O)c1ccccn1` | 0.4539 |
| 24 | `O=C(NCCNC(=O)c1ccn[nH]1)c1ccn[nH]1` | 4.07 |
| 25 | `CCN(C)CCNC(=O)c1ccncc1I` | 9.227 |
| 26 | `O=C1CN(C(=O)Cn2ccc3ccc(Cl)cc32)CCN1` | 1.444 |
| 27 | `COCC(C)NC(=O)N1CCC2(C1)OCCO2` (stereo not shown) | -11.6 |
| 28 | `NS(=O)(=O)CCCC(=O)N1CCC(c2ncc[nH]2)CC1` | 14.16 |
| 29 | `CN(C)CC1CCN(CCC(=O)N2CCOCC2)CC1` | 1.532 |
| 30 | `CCOc1ccc(S(=O)(=O)NC(C)C(N)=O)cc1` (stereo not shown) | 4.173 |
| 31 | `COc1cccc(C(=O)N2CCC(O)(C(F)(F)F)C2)c1` (stereo not shown) | -3.237 |
| 32 | `O=C(CC1C=CCC1)NCCNc1cnccn1` (stereo not shown) | 3.959 |
| 33 | `CCOC(=O)C(C)Nc1ccc2c(c1)CCCC(=O)N2` (stereo not shown) | 14.5 |
| 34 | `CN(C)CCN(CCN(C)C)C(=O)NC1CC1` | -1.702 |
| 35 | `CCOC(=O)c1csc(CNC(=O)c2ccc(C)o2)n1` | 6.008 |
| 36 | `O=C(NC1CCCNC1=O)c1cnc2ccccc2n1` (stereo not shown) | -2.532 |
| 37 | `CCc1cnc(CNC)s1` | 46.09 |
| 38 | `Cc1csc(C(C)CNC(=O)Nc2ncnn2C)n1` (stereo not shown) | -24.21 |
| 39 | `O=C1CN(CC(=O)N2CCc3sccc3C2)CCN1` | 8.555 |
| 40 | `Cn1cccc1C(=O)NCC(O)Cc1ccccc1` (stereo not shown) | -15.06 |
| 41 | `CCn1nccc1[C@@H]1OCC[C@H]1N` | -11.74 |
| 42 | `NCCNC(=O)c1ccncc1` | -18.2 |
| 43 | `CCC(CC)C(=O)N1CCNCC1` | 6.542 |
| 44 | `CN(CC(=O)NC(C)(C)C)CC1(O)CCCC1` | 5.884 |
| 45 | `COc1ccc(NC(=O)CCc2ccncc2)cn1` | -5.547 |
| 46 | `COc1ccc(CNC(=O)CN)cc1` | -16.08 |
| 47 | `NC(=O)c1ccsc1NC(=O)CCN1CCCC1` | -4.155 |
| 48 | `O=C(C1=COCCO1)N(Cc1ccco1)C1CC1` | 0.8233 |
| 49 | `Cc1cccc(NC(=O)CN2CCN(C)CC2)c1C` | -2.303 |
| 50 | `COCCCN1CCC(CNc2ccncn2)C1` (stereo not shown) | -0.2803 |
| 51 | `Cc1cnc(C(=O)NCc2ccc(C)n2C)cn1` | -7.71 |
| 52 | `CCC(C(=O)NCc1nnc(N)s1)n1cccn1` (stereo not shown) | -20.37 |
| 53 | `CC1(N)Cc2ccccc21` (stereo not shown) | -2.407 |
| 54 | `CCc1nccn1CCCNC(=O)[C@H]1CC[C@@H](N)C1` | 10.62 |
| 55 | `CCC(C)(CCO)NC(=O)c1ccncc1Cl` (stereo not shown) | 3.287 |
| 56 | `Cc1nccn1CC1CCN(CC(O)CO)CC1` (stereo not shown) | 0.2057 |
| 57 | `Cn1cc(CCCNC(=O)COc2cccnc2)cn1` | -9.831 |
| 58 | `O=C(NCCn1ccnc1)N1CCc2sccc2C1` | 6.377 |
| 59 | `CC(C)CNC(=O)c1cc2ncc(Br)cn2n1` | -51.6 |
| 60 | `CC(CN1CCCC1=O)NCc1ccc(C#N)cc1` (stereo not shown) | -29 |
| 61 | `NCCOCc1ccc(Cl)cc1` | -4.104 |
| 62 | `CN(Cc1nnc2n1CCC2)C(=O)c1ccccc1` | -24.72 |
| 63 | `Cc1c[nH]c(C(=O)NCCNc2ccncc2C)n1` | -4.626 |
| 64 | `CCNC(=O)c1cc(S(=O)(=O)NC(C)C)cn1C` | -4.08 |
| 65 | `CCC1C(=O)NCCN1C(=O)Nc1cccc(C)n1` (stereo not shown) | 0.6588 |
| 66 | `Cn1cc(N)c(C(=O)NCC2CC2)n1` | -0.8983 |
| 67 | `Cn1cc(Cl)cc1C(=O)Nc1nncs1` | 8.336 |
| 68 | `COCCNc1nnc(SCc2ccc(Br)cn2)s1` | 98.42 |
| 69 | `OCC1(CC2CC2)CCCN(CCCn2cccn2)C1` (stereo not shown) | 6.17 |
| 70 | `CCC(C(=O)NCc1ncc[nH]1)c1ccc(F)cc1` (stereo not shown) | 4.934 |
| 71 | `NC1CCN(C(=O)NC2CCCCC2)CC1` | 2.288 |
| 72 | `Cc1cnc(C(=O)N2CCOc3ccccc32)cn1` | -2.909 |
| 73 | `C1COC(COC2CCNCC2)C1` (stereo not shown) | 5.922 |
| 74 | `Cc1ccc(F)c(CN2CC[C@H](N)C2)c1` | 3.821 |
| 75 | `CCNC(=O)CNc1noc(C(C)(C)C)n1` | -18.17 |
| 76 | `CC(C)C(=O)N1CCC(C(=O)Nc2nccs2)CC1` | -11.72 |
| 77 | `NC(=O)CSc1nc(Cc2cccs2)n[nH]1` | -12.56 |
| 78 | `CN(C(=O)CCc1ccnn1C)C1CCNCC1` | -15.37 |
| 79 | `CCOCCC(=O)NC(C)c1nncn1C(C)C` (stereo not shown) | 11.57 |
| 80 | `CC1CCC(NC(=O)Cn2cnc(C#N)n2)CC1` (stereo not shown) | -14.03 |
| 81 | `CCOCCC(=O)N1CCN(c2ccc(F)cc2)CC1` | 1.598 |
| 82 | `CCOc1ccc2c(c1)C(N)CCO2` (stereo not shown) | -6.021 |
| 83 | `CCC1(CNCc2ccc3c(c2)OCO3)COC1` | 20.76 |
| 84 | `Cc1ccc(C)c2c(=O)cc(CN3CCC(N)C3)[nH]c12` (stereo not shown) | 0.3084 |
| 85 | `CCOC(=O)C1(C)CCC(=O)NC1` (stereo not shown) | -6.565 |
| 86 | `CC(C(=O)Nc1ccc(Br)cc1)n1cnnn1` (stereo not shown) | 4.123 |
| 87 | `Cc1cc(C)c2c(N[C@@H]3CC[C@@H](N)C3)ncnc2n1` | 1.557 |
| 88 | `C=C(C)CN1CCN(c2nccs2)CC1` | 11.61 |
| 89 | `CCc1cnc(CCNS(=O)(=O)c2cccnc2)s1` | 0.5582 |
| 90 | `NCc1cccc2occc12` | 37.52 |
| 91 | `NC1(CO)CCOc2ccccc21` (stereo not shown) | -34.92 |

Once more, the final 5:

compound,Percent Effect
Cc1cc(C)c2c(N[C@@H]3CC[C@@H](N)C3)ncnc2n1,1.557
C=C(C)CN1CCN(c2nccs2)CC1,11.61
CCc1cnc(CCNS(=O)(=O)c2cccnc2)s1,0.5582
NCc1cccc2occc12,37.52
NC1(CO)CCOc2ccccc21 (stereo not shown),-34.92